PMC9275970
Results are given in words; binding and its absence hold for the method and conditions named. In cells and extracts the contact can be indirect. Some binding calls cover weakened binding; strength is not graded here. Tags and fused reporters may be left off the sequences shown.

By UniProt entry, the sequences of proteins in these tests, tags left out.
UniProt P17302: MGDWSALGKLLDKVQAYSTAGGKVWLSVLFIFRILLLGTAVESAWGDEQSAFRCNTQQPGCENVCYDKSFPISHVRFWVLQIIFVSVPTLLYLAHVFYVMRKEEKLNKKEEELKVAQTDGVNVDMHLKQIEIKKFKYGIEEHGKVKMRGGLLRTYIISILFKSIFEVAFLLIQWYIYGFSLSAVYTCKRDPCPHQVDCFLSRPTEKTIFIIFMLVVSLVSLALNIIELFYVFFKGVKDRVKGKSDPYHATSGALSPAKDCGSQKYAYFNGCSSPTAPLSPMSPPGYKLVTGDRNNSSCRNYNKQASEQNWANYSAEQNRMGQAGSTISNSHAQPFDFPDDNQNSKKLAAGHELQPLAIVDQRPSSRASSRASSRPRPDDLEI

T1: Disheveled binding antagonist of β-catenin 1 (DACT1) (human (endogenous in iPSC-CMs)) (UniProt Q9NYF0)
T1 sequence: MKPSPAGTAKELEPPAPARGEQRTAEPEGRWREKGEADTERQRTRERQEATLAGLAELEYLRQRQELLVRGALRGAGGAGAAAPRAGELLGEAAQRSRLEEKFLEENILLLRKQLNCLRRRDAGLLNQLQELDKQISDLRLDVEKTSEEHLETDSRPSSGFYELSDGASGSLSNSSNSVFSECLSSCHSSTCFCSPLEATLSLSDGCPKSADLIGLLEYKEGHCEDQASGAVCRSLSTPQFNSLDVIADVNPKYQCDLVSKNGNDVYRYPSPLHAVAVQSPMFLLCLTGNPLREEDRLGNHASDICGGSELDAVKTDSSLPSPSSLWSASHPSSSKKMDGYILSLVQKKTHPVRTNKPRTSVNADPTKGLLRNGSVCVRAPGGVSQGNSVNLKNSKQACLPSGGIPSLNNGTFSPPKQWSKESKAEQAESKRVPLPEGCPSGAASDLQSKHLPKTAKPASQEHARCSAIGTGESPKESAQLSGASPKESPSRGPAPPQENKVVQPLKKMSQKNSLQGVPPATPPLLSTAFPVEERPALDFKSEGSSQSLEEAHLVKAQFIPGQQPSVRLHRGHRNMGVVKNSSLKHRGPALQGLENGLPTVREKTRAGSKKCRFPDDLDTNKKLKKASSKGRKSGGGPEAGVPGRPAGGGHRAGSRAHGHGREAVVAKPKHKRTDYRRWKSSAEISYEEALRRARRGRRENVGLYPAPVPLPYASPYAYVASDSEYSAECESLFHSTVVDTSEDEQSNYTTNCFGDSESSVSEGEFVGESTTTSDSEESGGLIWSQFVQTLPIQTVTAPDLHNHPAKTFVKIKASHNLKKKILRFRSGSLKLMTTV

T2: Disheveled binding antagonist of β-catenin 1 (DACT1) (human (endogenous in iPSC-CMs)), Q9NYF0
T2 chain: T1 sequence

B1: β-catenin, P35222 1-781 (protein)
chain: MATQADLMELDMAMEPDRKAAVSHWQQQSYLDSGIHSGATTTAPSLSGKGNPEEEDVDTSQVLYEWEQGFSQSFTQEQVADIDGQYAMTRAQRVRAAMFPETLDEGMQIPSTQFDAAHPTNVQRLAEPSQMLKHAVVNLINYQDDAELATRAIPELTKLLNDEDQVVVNKAAVMVHQLSKKEASRHAIMRSPQMVSAIVRTMQNTNDVETARCTAGTLHNLSHHREGLLAIFKSGGIPALVKMLGSPVDSVLFYAITTLHNLLLHQEGAKMAVRLAGGLQKMVALLNKTNVKFLAITTDCLQILAYGNQESKLIILASGGPQALVNIMRTYTYEKLLWTTSRVLKVLSVCSSNKPAIVEAGGMQALGLHLTDPSQRLVQNCLWTLRNLSDAATKQEGMEGLLGTLVQLLGSDDINVVTCAAGILSNLTCNNYKNKMMVCQVGGIEALVRTVLRAGDREDITEPAICALRHLTSRHQEAEMAQNAVRLHYGLPVVVKLLHPPSHWPLIKATVGLIRNLALCPANHAPLREQGAIPRLVQLLVRAHQDTQRRTSMGGTQQQFVEGVRMEEIVEGCTGALHILARDVHNRIVIRGLNTIPLFVQLLYSPIENIQRVAAGVLCELAQDKEAAEAIEAEGATAPLTELLHSRNEGVATYAAAVLFRMSEDKPQDYKKRLSVELTSSLFRTEPMAWNETADLGLDIGAQGEPLGYRQDDPSYRSFHSGGYGQDALGMDPMMEHEMGGHHPGADYPVDGLPDLGHAQDLMDGLPPGDSNQLAWFDTDL

Columns and labels:
[1] = target: T1, Disheveled binding antagonist of β-catenin 1 (DACT1) (human (endogenous in iPSC-CMs)); assay: co-IP; iPSC-CM lysate (500 μL, 1 μg/μL) with 5 μg rabbit anti-DACT1 antibody overnight at 4°C, protein A/G agarose beads 2 h at 4°C; blots with anti-β-catenin and anti-connexin 43; nonspecific IgG as control
[2] = target: T2, Disheveled binding antagonist of …; assay: as above; settings: remark: other sources report otherwise

Molecule	binding [1]	binding [2]
connexin 43 (from UniProt P17302 1-382)	binds	
B1		binds
